In article PMC8869655, “Identification of the Kinase-Substrate Recognition Interface between MYPT1 and Rho-Kinase” (Biomolecules, 2022):
No constants are given. Whether binding was seen depends on the method and setting. In cells and extracts the contact can be indirect. For part of these data: Binding calls can cover weak binding; strength is not graded here. Sequences can lack the tags named with a protein.

What was measured:
Assay in all cases: pull-down; GST-MYPT1 fragment and GFP-kinase fragment co-transfected in COS7 cells; lysate incubated with Glutathione Sepharose beads 1 h at 4 °C in 20 mM Tris-HCl pH 7.5, 1 mM EDTA, 1 mM DTT, 50 mM NaCl, 0.5% NP-40; washed three times; immunoblot with anti-GST or anti-GFP
[1] = molecular target: T1, GST-MYPT1-758–868 aa with deletion of the 814–822 aa region (rat) (UniProt Q10728)
T1 sequence: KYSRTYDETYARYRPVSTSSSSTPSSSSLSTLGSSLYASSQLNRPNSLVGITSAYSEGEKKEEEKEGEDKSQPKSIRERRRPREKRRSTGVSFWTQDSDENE

[2] = molecular target: T2, GST-MYPT1-758–868 aa with deletion of the 822-835 aa region (rat) (UniProt Q10728)
T2 sequence: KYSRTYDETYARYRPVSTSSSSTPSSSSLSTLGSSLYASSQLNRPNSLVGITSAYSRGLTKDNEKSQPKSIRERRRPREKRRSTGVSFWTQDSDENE

[3] = molecular target: T3, GST-MYPT1-684–868 aa (rat) (UniProt Q10728)
T3 sequence: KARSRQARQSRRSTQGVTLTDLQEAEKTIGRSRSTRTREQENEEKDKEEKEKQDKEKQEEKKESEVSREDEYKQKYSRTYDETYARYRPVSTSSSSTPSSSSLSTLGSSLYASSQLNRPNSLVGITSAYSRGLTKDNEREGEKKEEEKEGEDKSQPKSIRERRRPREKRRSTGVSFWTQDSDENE

[4] = molecular target: T4, GST-MYPT1-684–868 aa with DM1 deleted (rat) (UniProt Q10728)
T4 sequence: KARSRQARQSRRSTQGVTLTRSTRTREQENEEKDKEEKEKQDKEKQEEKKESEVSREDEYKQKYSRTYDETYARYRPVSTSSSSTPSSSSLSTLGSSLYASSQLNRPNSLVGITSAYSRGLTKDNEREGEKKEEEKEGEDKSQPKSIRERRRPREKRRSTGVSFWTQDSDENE

[5] = molecular target: T5, GST-MYPT1-684–758 aa (rat) (UniProt Q10728)
T5 sequence: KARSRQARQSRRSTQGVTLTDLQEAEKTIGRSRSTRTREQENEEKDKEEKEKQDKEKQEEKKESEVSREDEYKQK

[6] = molecular target: T6, GST-MYPT1-758–868 aa (rat) (UniProt Q10728)
T6 sequence: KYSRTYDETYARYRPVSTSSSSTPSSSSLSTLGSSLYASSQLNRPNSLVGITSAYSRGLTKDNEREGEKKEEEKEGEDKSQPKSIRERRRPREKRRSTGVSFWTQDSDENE

[7] = molecular target: T7, GST-MYPT1-684–868 aa with DM2 deleted (rat) (UniProt Q10728)
T7 sequence: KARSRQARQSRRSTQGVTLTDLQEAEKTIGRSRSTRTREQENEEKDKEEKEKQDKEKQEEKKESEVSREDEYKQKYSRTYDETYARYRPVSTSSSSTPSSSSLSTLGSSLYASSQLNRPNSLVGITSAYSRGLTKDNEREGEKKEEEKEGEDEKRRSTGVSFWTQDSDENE

[8] = molecular target: T8, GST-MYPT1-684–868 aa with both DM1 and DM2 deleted (rat) (UniProt Q10728)
T8 sequence: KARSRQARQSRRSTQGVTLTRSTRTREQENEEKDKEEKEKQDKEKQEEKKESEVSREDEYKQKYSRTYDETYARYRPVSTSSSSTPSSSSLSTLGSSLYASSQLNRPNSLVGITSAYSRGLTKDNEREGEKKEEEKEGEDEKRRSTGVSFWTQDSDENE

Row | binding [1] | binding [2] | binding [3] | binding [4] | binding [5] | binding [6] | binding [7] | binding [8] | Substance
1 | binds | binds | binds weakly | binds weakly | binds | binds | binds weakly | no binding | GFP-Rho-kinase-cat (6–418 aa, core catalytic fragment) (bovine) (domain or fragment)
2 | – | – | binds weakly | – | – | – | – | – | Rho-kinase part of the coiled-coil fragment (418–553 aa) (bovine) (domain or fragment)
